Experimental data as given in patent publication EP2258724A1.
No constants are given. Whether binding was seen depends on the method and setting. Some entries that bind do so weakly or less than the wild type. For part of these data: Sequences can lack the tags named with a protein.

Tests used:
[1] = target: T1, recombinant human CD83 protein, chimeric protein joined to a portion of an immunoglobulin Fc fragment (human) (UniProt Q01151); test: ELISA, isolated recombinant human CD83 (Fc chimera)
T1 sequence: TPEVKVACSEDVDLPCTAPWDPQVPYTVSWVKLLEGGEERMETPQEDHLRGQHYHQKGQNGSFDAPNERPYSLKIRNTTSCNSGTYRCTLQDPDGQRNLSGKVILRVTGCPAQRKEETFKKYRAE

[2] = target: T1, recombinant human CD83 protein, chimeric protein joined to a portion of an immunoglobulin Fc fragment (human); test: Biacore, isolated recombinant human CD83 (Fc chimera)
[3] = target: T2, isolated recombinant mouse CD83 protein (mouse) (UniProt O88324); test: ELISA, isolated recombinant mouse CD83
T2 sequence: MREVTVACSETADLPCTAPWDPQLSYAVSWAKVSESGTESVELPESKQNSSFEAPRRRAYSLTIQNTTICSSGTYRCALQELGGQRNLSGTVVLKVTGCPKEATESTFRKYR

[4] = target: T2, isolated recombinant mouse CD83 protein (mouse); test: Biacore, isolated recombinant mouse CD83

Measured: binding

B1: 95F04 monoclonal anti-CD83 antibody (antibody, mouse IgG1, V domains shown)
VH: QSVEESGGRLVTPGTPLTLTCTVSGIDLSSNAMIWVRQAPREGLEWIGAMDSNSRTYYATWAKGRFTISRTSSITVDLKITSPTTEDTATYFCARGDGGSSDYTEMWGPGTLVTVSS
VL: QAVVTQTTSPVSAPVGGTVTINCQSSQSVYGNNELSWYQQKPGQPPKLLIYQASSLASGVPSRFKGSGSGTQFTLTISDLECDDAATYYCLGEYSISADNHFGGGTEVVVKR
binds: all assays above

B2: 96G08 monoclonal anti-CD83 antibody (antibody, mouse IgG1, V domains shown)
VH: QSVEESGGRLVTPGTPLTLTCTVSGIDLSSDGISWVRQAPGKGLEWIGIISSGGNTYYASWAKGRFTISRTSTTVDLKMTSLTTEDTATYFCARVVGGTYSIWGQGTLVTVSS
VL: AQVLTQTASPVSAPVGGTVTINCQSSQSVYNNDFLSWYQQKPGQPPKLLIYYASTLASGVPSRFKGSGSGTQFTLTISDLECDDAATYYCTGTYGNSAWYEDAFGGGTEVVVKR
binds: [3] | [4]
